# Laboratory results reported in the supplement of paper PMC11732987, “Enantioselective OTUD7B fragment discovery through chemoproteomics screening and high-throughput optimisation” (Communications Chemistry, 2025).
# By UniProt entry, the sequences of proteins in these tests, tags left out. Where a name states a change or a piece, a line headed by the entry shows the natural chain unless it says otherwise. Residues count along the entry.
# UniProt Q96SK2: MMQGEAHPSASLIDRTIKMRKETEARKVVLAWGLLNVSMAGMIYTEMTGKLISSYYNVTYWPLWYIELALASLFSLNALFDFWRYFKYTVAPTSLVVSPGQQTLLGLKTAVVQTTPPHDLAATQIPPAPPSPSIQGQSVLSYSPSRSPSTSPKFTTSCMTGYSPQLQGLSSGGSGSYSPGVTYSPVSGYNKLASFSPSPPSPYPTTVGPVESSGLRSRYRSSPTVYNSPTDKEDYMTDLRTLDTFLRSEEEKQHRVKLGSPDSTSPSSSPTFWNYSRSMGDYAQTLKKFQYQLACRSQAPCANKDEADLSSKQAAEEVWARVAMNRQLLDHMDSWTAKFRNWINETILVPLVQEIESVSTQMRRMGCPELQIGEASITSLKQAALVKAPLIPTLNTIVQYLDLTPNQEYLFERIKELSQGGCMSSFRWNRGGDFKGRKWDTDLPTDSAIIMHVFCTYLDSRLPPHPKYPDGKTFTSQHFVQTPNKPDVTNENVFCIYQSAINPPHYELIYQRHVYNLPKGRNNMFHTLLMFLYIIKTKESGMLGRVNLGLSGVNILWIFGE
# UniProt Q9Y490, 1006-1025: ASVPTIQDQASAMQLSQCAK
# UniProt Q12888, 711-730: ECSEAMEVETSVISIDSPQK
# UniProt O95379: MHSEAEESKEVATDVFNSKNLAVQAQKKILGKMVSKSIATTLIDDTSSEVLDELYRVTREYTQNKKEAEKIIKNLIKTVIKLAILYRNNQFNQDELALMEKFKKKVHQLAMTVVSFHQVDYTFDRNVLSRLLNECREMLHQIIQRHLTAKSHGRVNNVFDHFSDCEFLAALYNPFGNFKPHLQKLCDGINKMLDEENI
# UniProt O94826, 577-599: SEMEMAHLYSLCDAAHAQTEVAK
# UniProt Q16890: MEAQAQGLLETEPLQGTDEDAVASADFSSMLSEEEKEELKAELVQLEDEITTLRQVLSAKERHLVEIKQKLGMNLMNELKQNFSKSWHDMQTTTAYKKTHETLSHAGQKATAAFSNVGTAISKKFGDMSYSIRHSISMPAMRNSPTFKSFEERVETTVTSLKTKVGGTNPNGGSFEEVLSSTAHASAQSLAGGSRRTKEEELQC
# UniProt Q96Q05: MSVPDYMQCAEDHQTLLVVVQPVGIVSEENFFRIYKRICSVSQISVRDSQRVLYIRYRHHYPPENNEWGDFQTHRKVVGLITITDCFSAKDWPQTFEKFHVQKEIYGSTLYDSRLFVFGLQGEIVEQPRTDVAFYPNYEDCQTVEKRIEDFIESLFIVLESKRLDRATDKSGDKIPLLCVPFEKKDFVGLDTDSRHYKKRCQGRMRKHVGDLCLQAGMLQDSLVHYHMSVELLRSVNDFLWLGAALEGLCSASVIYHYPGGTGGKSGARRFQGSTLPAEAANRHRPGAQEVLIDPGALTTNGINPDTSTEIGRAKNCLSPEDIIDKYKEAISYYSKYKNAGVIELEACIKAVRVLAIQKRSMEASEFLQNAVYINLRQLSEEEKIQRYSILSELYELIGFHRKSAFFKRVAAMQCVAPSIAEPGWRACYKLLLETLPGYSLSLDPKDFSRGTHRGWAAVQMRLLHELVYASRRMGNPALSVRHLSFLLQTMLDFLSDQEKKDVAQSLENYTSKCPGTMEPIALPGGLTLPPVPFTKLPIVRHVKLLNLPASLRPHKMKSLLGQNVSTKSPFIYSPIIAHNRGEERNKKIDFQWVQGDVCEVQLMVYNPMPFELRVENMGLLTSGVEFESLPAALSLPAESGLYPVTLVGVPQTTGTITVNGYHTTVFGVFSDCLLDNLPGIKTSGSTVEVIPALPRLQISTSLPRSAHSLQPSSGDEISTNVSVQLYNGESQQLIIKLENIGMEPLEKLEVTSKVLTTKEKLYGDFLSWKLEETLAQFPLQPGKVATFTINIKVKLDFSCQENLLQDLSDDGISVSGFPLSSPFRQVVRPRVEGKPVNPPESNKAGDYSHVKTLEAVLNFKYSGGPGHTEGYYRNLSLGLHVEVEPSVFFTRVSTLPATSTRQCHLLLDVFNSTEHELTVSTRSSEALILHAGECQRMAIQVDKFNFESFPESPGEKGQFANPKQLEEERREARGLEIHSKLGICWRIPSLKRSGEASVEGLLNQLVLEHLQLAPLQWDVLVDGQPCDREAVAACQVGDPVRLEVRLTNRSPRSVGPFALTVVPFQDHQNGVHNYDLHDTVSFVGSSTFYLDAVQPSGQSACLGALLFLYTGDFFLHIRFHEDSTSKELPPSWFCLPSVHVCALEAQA
# UniProt Q02880: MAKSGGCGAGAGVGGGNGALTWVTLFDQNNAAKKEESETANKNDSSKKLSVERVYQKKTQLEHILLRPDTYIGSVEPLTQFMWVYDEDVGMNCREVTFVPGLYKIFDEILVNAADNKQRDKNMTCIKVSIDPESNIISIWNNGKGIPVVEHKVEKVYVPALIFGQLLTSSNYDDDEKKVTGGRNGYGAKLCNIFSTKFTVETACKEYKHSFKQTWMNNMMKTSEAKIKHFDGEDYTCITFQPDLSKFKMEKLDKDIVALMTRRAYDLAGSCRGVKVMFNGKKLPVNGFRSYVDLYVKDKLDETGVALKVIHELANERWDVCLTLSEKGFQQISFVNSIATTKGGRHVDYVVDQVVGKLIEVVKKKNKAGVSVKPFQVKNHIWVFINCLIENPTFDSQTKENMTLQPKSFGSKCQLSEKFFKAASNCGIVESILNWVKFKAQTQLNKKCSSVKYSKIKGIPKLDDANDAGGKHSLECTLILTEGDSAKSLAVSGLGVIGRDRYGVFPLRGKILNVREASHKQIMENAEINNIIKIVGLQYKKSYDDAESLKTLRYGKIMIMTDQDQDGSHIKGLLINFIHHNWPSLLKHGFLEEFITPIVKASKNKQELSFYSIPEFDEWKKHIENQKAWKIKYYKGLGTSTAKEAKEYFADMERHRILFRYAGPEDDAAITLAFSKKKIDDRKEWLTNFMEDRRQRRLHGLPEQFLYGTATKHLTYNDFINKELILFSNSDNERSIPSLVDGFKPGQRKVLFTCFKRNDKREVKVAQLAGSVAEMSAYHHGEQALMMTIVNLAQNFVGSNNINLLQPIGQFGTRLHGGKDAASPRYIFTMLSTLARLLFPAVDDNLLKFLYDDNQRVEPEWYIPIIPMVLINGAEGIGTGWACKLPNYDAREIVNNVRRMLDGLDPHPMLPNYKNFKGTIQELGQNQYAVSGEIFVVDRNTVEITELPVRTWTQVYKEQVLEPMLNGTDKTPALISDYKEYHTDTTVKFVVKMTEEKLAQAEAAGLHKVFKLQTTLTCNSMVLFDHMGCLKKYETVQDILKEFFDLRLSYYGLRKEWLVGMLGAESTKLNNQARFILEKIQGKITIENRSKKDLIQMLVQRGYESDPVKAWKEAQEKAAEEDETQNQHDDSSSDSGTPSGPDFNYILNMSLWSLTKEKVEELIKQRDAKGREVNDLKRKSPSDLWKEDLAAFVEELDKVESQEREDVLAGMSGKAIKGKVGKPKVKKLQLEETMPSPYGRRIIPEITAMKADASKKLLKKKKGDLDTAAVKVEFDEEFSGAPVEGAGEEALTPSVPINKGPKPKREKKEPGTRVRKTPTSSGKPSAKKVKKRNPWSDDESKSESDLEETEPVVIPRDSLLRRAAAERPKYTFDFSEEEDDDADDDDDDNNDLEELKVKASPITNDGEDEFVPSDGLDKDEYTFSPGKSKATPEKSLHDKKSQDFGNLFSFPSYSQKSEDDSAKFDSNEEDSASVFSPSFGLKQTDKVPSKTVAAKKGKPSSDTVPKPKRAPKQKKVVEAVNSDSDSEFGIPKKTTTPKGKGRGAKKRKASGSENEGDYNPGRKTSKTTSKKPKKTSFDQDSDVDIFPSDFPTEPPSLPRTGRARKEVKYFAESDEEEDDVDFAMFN
# UniProt Q9Y4G6, 2400-2424: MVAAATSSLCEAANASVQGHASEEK
# UniProt Q96HA7: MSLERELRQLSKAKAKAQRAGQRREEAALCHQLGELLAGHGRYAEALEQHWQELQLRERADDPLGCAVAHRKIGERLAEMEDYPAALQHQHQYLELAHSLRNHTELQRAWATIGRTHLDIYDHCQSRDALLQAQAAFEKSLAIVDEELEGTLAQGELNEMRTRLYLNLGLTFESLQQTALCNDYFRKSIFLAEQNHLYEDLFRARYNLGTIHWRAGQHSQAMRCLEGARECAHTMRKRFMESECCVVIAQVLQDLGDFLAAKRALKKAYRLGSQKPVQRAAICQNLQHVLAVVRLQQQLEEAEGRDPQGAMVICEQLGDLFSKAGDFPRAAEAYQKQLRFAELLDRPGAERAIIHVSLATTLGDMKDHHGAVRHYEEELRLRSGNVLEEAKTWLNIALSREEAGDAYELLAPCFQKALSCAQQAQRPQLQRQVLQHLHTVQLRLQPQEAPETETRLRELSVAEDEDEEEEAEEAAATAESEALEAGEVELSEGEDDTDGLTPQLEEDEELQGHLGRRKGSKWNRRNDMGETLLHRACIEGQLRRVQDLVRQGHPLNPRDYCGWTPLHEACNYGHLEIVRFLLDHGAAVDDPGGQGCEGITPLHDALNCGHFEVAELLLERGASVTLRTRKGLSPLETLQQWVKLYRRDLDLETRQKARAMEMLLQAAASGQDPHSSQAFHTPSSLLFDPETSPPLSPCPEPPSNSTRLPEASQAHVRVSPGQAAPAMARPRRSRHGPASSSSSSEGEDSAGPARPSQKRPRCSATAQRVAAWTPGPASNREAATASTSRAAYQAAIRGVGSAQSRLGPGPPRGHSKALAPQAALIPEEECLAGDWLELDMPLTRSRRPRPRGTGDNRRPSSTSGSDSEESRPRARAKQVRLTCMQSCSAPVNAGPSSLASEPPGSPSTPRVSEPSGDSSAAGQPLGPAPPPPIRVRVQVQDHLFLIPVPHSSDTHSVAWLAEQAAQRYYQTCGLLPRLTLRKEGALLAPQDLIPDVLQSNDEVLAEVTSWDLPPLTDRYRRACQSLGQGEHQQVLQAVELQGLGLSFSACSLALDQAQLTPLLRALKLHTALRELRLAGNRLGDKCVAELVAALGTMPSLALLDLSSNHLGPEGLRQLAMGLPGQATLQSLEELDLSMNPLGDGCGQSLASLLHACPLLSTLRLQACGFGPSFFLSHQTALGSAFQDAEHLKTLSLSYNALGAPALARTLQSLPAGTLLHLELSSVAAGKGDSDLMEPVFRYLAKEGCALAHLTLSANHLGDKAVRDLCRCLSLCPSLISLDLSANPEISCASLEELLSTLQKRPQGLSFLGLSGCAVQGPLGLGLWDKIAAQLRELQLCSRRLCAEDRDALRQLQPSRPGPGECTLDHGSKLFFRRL
# UniProt Q9UDY2: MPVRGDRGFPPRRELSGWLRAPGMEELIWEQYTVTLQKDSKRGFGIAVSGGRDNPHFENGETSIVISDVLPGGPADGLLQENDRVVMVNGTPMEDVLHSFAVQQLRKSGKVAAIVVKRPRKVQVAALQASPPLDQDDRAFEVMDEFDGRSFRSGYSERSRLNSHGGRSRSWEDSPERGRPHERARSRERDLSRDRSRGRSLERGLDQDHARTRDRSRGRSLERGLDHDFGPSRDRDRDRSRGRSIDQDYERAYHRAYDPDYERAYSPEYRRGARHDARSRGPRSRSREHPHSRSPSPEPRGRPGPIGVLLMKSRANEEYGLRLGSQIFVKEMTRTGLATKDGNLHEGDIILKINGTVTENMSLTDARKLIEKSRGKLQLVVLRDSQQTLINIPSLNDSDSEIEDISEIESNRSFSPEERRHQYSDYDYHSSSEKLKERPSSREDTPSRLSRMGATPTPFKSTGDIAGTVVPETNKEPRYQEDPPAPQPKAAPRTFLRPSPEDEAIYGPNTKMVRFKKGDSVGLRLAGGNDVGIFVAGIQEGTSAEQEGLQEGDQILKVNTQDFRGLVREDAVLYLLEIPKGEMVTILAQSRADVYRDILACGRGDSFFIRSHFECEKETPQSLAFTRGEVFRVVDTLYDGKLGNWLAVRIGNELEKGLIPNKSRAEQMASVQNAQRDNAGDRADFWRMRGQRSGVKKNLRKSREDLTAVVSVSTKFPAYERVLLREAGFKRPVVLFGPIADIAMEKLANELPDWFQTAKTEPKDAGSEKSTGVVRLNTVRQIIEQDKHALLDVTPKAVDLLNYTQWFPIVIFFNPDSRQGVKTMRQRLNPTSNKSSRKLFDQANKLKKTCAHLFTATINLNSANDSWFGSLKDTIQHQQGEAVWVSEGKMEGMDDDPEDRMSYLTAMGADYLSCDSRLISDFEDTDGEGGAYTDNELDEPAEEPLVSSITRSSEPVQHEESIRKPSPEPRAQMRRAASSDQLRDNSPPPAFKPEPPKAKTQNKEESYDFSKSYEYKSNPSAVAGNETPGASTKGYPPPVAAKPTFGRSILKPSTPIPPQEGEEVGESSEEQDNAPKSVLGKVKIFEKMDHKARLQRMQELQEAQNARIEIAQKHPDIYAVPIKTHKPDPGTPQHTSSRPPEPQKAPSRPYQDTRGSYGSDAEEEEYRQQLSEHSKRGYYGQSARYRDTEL
# This is one part of the list. The data scatter; read single values as rough.
# Legend:
# [1] = compound: ClCC(=O)N[C@@H]1CCCc2ccccc12; assay: log2 mean competition ratio of IA-DTB cysteine labelling (DMSO/compound) (log2 ratio); higher = stronger cysteine engagement by compound; conditions: treatment time: 4 h, cell line lysate: HEK293T
# Experimental: (§1)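 IA-DTB competitive cysteine chemoproteomics in HEK293T RIPA lysate. Lysates were treated with compound 29 or 30 at 50 or 200 µM for 4 h, then IA-DTB (500 µM, 1 h), trypsin-digested, NeutrAvidin-enriched and analysed by diaPASEF. Competition ratio = intensity DMSO / intensity compound (n=4 treated, n=64 DMSO); binding: mean log2 CR ≥ 1 and p ≤ 0.05 plus QC filters. Target is the cysteine site.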
# [2] = compound: ClCC(=O)N[C@H]1CCCc2ccccc12; assay: as above; conditions: treatment time: 4 h, cell line lysate: HEK293T
# Experimental: as §1
Target,log2 mean competition ratio ([1]; 50 µM),log2 mean competition ratio ([1]; 200 µM),log2 mean competition ratio ([2]; 50 µM),log2 mean competition ratio ([2]; 200 µM)
TRABD C108 (UniProt Q9H4I3),-0.231,-0.115,-0.137,-0.0691
TNRC6A C225 (UniProt Q8NDV7),-0.129,-0.138,0.244,-0.0335
TPGS2 C150,0.0695,-0.198,0.219,0.0288
TMEM209 C301 (UniProt Q96SK2),0.112,0.0207,-0.00988,-0.0935
TLN1 C1023 (UniProt Q9Y490),-0.0795,-0.136,-0.0613,0.0363
TP53BP1 C712 (UniProt Q12888),-0.315,-0.407,-0.0998,-0.388
TNFAIP8 C186 (UniProt O95379),-0.315,-0.055,0.015,-0.00886
TRAF7 C226 (UniProt Q6Q0C0),-0.00359,0.072,-0.168,-0.046
TOMM70 C588 (UniProt O94826),-0.0309,-0.0193,-0.217,-0.159
TPD52L1 C204 (UniProt Q16890),-0.258,–,-0.158,0.322
TRAPPC9 C935 (UniProt Q96Q05),-0.255,0.0359,-0.326,-0.249
TMPO C629,0.0142,-0.0162,0.28,0.0147
TRIM33 C461,0.0999,0.357,-0.0812,0.328
TLN1 C1927 (UniProt Q9Y490),-0.273,-0.354,-0.172,-0.49
TOPBP1 C1337 (UniProt Q92547),0.182,-0.14,0.107,-0.0176
TMEM131L C950,0.166,-0.188,0.226,-0.0751
TOP2B C125 (UniProt Q02880),0.125,-0.142,0.0578,0.0903
TP53BP1 C772 (UniProt Q12888),0.221,-0.0373,0.403,0.0314
TRIM33 C153,-0.0984,0.142,0.0581,0.103
TLN2 C2409 (UniProt Q9Y4G6),-0.472,-0.124,-0.445,-0.403
TONSL C66 (UniProt Q96HA7),0.281,0.211,0.238,-0.0105
TPI1 C67 (UniProt P60174),0.28,0.448,0.281,0.382
TMEM104 C455 (UniProt Q8NE00),0.19,-0.211,-0.149,-0.0207
TNKS C190 (UniProt O95271),0.114,-0.446,0.565,-0.288
TP53 C124,0.0412,-0.15,-0.146,-0.113
TJP2 C615 (UniProt Q9UDY2),0.0571,-0.0275,0.0974,-0.145

# Single entries from the results shown.
# Entry for TLN2 C2409 (UniProt Q9Y4G6) under log2 mean competition ratio ([1]; 200 µM): -0.124
# Entry for TPD52L1 C204 (UniProt Q16890) under log2 mean competition ratio ([1]; 50 µM): -0.258
